No constants are given. Whether binding was seen depends on the method and setting.
Biological target: SARS-CoV RBD (Sino Biological) (SARS-CoV) (UniProt P59594)
Assay: ELISA, plate coated with SARS-CoV RBD at 1 µg/ml, OD 405 nm

B1: S2R7 (antibody, V domains shown)
VH: QVQLQESGPGLVRPSETLSLTCTVSSASIPTGTHYWGWIRQPPGQGLEWIGSISNIGYSFYNPSLKSRVSISIDTSKKQFSLKVRSVTAADTAVYYCVRPTNEYGGFWFDRWGQGTLVTVSS
VL: SYVLTQPPSVSVAPGKTARFTCGGDNIGSKRVHWYQQKPGQAPVLVIYYDADRPSGIPERFSGSKSGSTATLTISRVEAGDEADYYCQVWESTRDHVIFGGGTKLTVL
B1 was tested, and the binding was “no binding (tested: about 6 µg/ml)”.

Source: patent publication US20240059757A1
